Among the targets are SHP2^WT-TurboID (UniProt Q06124); SHP2^E139D-TurboID (UniProt Q06124); SHP2^E76K-TurboID (UniProt Q06124); SHP2^Q510E-TurboID (UniProt Q06124); SHP2^Q510K-TurboID (UniProt Q06124); SHP2^R138Q-TurboID (UniProt Q06124); SHP2^T42A-TurboID (UniProt Q06124); SHP2^T468M-TurboID (UniProt Q06124); SHP2^T507K-TurboID (UniProt Q06124); SHP2^T52S-TurboID (UniProt Q06124); SHP2^Y279C-TurboID (UniProt Q06124).

Amino acid sequences for entries named in this document (tags omitted). Residues count along the entry.
UniProt Q15388: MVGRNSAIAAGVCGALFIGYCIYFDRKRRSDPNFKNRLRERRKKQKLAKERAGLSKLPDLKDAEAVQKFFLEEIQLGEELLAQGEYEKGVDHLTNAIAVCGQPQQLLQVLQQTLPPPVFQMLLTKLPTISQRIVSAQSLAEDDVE
UniProt P38646, residues 47-679: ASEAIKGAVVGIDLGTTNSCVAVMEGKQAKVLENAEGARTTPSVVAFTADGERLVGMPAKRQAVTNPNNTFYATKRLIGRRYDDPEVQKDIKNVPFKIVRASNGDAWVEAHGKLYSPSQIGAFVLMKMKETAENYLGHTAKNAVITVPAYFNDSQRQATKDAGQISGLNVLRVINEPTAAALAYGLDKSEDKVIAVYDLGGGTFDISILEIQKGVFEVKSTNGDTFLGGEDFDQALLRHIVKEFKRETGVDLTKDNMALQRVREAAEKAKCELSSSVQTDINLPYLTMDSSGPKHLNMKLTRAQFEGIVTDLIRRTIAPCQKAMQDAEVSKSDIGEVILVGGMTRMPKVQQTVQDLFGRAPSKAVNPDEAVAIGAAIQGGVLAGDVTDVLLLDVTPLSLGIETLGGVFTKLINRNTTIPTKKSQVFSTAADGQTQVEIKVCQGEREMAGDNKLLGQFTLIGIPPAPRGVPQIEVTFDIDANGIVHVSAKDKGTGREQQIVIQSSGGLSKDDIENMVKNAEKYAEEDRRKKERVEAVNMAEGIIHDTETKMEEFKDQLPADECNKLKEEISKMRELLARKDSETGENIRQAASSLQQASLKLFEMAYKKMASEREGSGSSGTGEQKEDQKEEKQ

Assay in all cases: proximity labelling; SHP2-TurboID variants against a TurboID-only control in SHP2 knock-out HEK 293 cells; exogenous biotin; biotinylated proteins enriched and identified by mass spectrometry; hits p<0.05 and log2 fold-change >1; cells unstimulated or stimulated with 100 ng/mL EGF; SHP2^WT also after 4 hours with 1 uM TNO155

The results in this text go back to article doi:10.1101/2025.02.26.640373.

No constants are given. Whether binding was seen depends on the method and setting. In cells and extracts the contact can be indirect. These calls come from enrichment with a bait or labelling near it, and not all partners need be listed. A no says only that the protein was not detected with the bait.

Turning to PI3KR2 (from UniProt O00459 1-728), the binding entry with SHP2^WT-TurboID is listed as “binds”.

In the case of Tom20 (from UniProt Q15388 1-145), in the experiment with SHP2^WT-TurboID, the binding entry is listed as “no binding”.

As for “mortalin (HSPA9) (from UniProt P38646 47-679)”, the binding entry with SHP2^E139D-TurboID, with SHP2^E76K-TurboID, in the experiment with SHP2^Q510E-TurboID, in the experiment with SHP2^Q510K-TurboID, with SHP2^R138Q-TurboID and in the experiment with SHP2^T42A-TurboID was “no binding” throughout. Moreover, the binding entry with SHP2^T468M-TurboID, with SHP2^T507K-TurboID, with SHP2^T52S-TurboID, with SHP2^WT-TurboID and with SHP2^Y279C-TurboID was “no binding” in each case.
